Results reported in US20030104377.

By UniProt entry, the sequences of proteins in these tests, tags left out. Residues count along the entry.
UniProt P24821, 23-2201: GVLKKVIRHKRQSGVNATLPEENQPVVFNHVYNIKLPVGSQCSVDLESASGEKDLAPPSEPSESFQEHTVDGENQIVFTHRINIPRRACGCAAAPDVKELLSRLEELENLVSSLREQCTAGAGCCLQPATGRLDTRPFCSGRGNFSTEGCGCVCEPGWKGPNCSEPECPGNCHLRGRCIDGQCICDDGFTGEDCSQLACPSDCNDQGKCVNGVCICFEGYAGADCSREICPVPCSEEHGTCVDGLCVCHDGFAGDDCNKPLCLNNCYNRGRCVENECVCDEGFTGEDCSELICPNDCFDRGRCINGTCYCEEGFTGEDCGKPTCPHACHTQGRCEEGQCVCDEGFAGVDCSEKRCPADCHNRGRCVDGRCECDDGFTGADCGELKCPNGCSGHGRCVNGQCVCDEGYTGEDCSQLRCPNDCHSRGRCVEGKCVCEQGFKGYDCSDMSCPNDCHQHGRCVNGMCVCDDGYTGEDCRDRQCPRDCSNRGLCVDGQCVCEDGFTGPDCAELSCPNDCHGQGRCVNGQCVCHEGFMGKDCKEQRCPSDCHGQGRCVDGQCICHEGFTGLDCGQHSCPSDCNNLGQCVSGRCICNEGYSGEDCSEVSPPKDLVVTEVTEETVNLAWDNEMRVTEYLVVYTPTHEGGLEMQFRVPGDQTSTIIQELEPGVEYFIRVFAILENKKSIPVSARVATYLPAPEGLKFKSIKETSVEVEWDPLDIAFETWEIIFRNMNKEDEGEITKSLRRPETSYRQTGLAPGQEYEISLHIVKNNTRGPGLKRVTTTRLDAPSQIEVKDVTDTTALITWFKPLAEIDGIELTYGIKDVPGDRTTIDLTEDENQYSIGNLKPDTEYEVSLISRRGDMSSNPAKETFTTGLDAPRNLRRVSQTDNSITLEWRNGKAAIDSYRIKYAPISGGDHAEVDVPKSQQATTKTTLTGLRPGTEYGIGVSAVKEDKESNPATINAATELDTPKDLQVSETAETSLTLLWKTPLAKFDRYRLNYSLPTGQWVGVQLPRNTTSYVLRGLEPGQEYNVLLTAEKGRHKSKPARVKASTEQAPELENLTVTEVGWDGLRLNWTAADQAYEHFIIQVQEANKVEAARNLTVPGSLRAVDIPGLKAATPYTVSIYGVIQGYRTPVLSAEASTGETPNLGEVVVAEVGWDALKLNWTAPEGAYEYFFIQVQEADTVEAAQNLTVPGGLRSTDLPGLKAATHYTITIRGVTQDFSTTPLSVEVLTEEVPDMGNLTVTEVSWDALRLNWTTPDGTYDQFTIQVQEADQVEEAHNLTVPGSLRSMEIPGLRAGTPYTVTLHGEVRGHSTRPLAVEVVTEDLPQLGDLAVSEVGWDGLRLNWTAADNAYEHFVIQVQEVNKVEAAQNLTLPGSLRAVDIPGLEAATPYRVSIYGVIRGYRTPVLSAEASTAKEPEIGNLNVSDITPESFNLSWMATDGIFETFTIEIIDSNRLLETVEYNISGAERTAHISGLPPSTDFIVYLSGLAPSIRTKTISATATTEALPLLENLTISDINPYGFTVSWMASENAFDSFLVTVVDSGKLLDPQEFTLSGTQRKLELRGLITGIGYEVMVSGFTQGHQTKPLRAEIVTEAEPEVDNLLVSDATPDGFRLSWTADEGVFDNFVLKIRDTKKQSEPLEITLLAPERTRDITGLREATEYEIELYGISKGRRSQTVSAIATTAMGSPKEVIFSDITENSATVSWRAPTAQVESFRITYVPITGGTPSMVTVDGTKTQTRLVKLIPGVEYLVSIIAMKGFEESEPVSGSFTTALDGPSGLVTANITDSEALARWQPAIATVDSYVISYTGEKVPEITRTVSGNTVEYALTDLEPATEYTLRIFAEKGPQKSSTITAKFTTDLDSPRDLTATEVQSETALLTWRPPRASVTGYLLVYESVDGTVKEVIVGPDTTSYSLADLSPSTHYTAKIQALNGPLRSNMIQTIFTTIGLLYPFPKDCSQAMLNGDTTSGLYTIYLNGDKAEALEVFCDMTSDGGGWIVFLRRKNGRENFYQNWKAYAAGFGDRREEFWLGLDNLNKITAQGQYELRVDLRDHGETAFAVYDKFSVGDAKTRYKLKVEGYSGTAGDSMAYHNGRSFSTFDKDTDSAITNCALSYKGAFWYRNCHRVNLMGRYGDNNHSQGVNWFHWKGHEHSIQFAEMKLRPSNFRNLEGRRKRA

Molecular target: Tenascin-C (Homo sapiens) (UniProt P24821)
Assay: filter binding
Settings: protein details: Chemicon (Temecula, CA)

## GGGAGGACGAUGCGGAACAAUGCACUCGUCGCCGUAAUGGAUGUUUUGCU [TN9.3]
2'-F C and U, 3'-3' cap, variant of TN9
  Kd: > 10 µM

## GGGAGGACGAUGCGGAUAAUUCGACACCAACCAGGUCCCGGAAAUCAUCCCUCUGCAGACGACUCGCCCGA [TN8]
2'-F C and U, orphan
  Kd: > 10 µM

## GGGAGGACGCGUCGCCGUAAUGGAUGUUUUGCUCCCUG [TTA1-Red]
As TTA1, 5' amine conjugated to Rhodamine-Red-X [(CH2CH2O)6 spacer between 9 and 10 (left out), 2'-F: 8,10,12,13,15,16,18,21,25,27-30,32-37, 2'-OMe: 2-7,19,20,22-24,26,31,38, 2'-OH G: 1,9,11,14,17, 5' amine-Rhodamine-Red-X, 3'-3' dT cap (left out)], identical affinity to TTA1, label: Rhodamine-Red-X 5', letters built from the parent sequence and the stated change, variant of TTA1
  Kd: 0.005 µM

## GGGAGGACGAUGCGGAAGUUUAGUGCUCCAGUUCCGACACUCCUCUACUCAGCCCCAGACGACUCGCCCGA [TN1]
2'-F C and U, orphan
  Kd: > 10 µM

## GGGAGGACGAUGCGGAACAAUGCACUCGUCGCCGUAAUGGAUGUUUUGCUCCCUG [TN9.4M4]
2'-F C and U, 2'-OMe G28,G31,G34, 3'-3' cap, variant of TN9.4
  binding result: no binding

Negatives hold for the conditions tested. For at least one entry, the source does not settle the construct or the ends of the probe.
